Test results reported in patent US20170226133A1, “Gold (I)-Phosphine Compounds as Anti-Bacterial Agents” (Auspherix Limited, priority 2014, published 2017).

Legend:
[1] = system: human hepatocyte cell line (HepG2); experiment: HepG2 cell inhibition assay (CCK-8 cell viability); assay type: cell-based; settings: for Therapeutic Index (HepG2)/E. coli: HepG2 TD50 divided by dose where 50% of E. coli growth is inhibited; for Therapeutic Index (HepG2)/S. aureus: HepG2 TD50 divided by dose where 50% of S. aureus growth is inhibited
Experimental: Cell counting kit-8 (Sigma, CCK-8) assays were performed to assess the effect of compounds on cell viability. The assay is based on the reduction of a water-soluble tetrazolium salt (WST-8) by cellular dehydrogenases to a formazan dye which can be detected spectroscopically. 96-well plates were seeded with the human hepatocyte cell line (HepG2) at approximately 8×10^3 cells per well in Minimum Essential Medium Eagle (EMEM) with Earle's salts and sodium bicarbonate supplemented with 10% heat-inactivated foetal bovine serum 2 mM glutamine and 1% non-essential amino acids (NEAA). The following day serial dilutions of compounds (dissolved and diluted in DMSO) were added to the cells in duplicates. Control included an ‘untreated’ control where cells were grown in the presence of 1% DMSO and a medium only control (plus 1% DMSO). After 24 hours CCK-8 reagent (10 μl) was added to each well and cell viability was assessed by measuring the absorbance at a wavelength of 450 nm after 2-3 h hours. Only living cells can reduce the tetrazolium salts into coloured formazan products. Results were expressed as 50% growth inhibition (TD50) values compared to ‘untreated’ control. The therapeutic index was calculated as the ratio of the dose that produces growth inhibition in 50% of HepG2 cells divided by the dose where 50% of S. aureus or E. coli growth is inhibited.

[2] = system: chinese hamster ovary cells (CHO); experiment: CHO toxicity assay (CCK-8 cell viability); assay type: cell-based; settings: CHO TD50 divided by dose where 50% of S. aureus growth is inhibited
Experimental: Cell counting kit-8 (Sigma, CCK-8) assays were performed to assess the effect of compounds on cell viability. The assay is based on the reduction of a water-soluble tetrazolium salt (WST-8) by cellular dehydrogenases to a formazan dye which can be detected spectroscopically. 96-well plates were seeded with chinese hamster ovary cells (CHO) cells at 7×10^3 cells per well in Dulbecco's modified Eagle's medium nutrient mixture F-12 Ham (containing 15 mM HEPES, NaHCO3, pyridoxine and L-glutamine) supplemented with 10% fetal bovine serum (FBS). The following day serial dilutions of compounds (dissolved and diluted in DMSO) were added to the cells in duplicates. Control included an ‘untreated’ control where cells were grown in the presence of 1% DMSO and a medium only control (plus 1% DMSO). After 24 hours CCK-8 reagent (10 μl) was added to each well and cell viability was assessed by measuring the absorbance at a wavelength of 450 nm after 2.5-3 hours. Only living cells can reduce the tetrazolium salts into coloured formazan products. Results were expressed as 50% growth inhibition (TD50) values compared to ‘untreated’ control.
The therapeutic index was calculated as the ratio of the dose that produces growth inhibition in 50% of CHO cells divided by the dose where 50% of S. aureus growth is inhibited.

`C[P](C)(C)=[Au][S]C1CCOCC1` [Compound 16] was tested, and the “Therapeutic Index (HepG2)/E. coli” value [1] was 2 and the “Therapeutic Index (HepG2)/S. aureus” value [1] was greater than 6.
For `C[P](C)(C)=[Au][S][C@H]1CC[C@H](O)CC1` [Compound 15], the “Therapeutic Index (HepG2)/E. coli” value [1] was 5 and the “Therapeutic Index (HepG2)/S. aureus” value [1] was greater than 6.
With `CCOC(=O)[C@H](C[S][Au]=[P](C)(C)C)NC(C)=O` [Compound 8] the “Therapeutic Index (HepG2)/E. coli” value [1] was 2 and the “Therapeutic Index (HepG2)/S. aureus” value [1] was 32.
With `C[P](C)(C)=[Au][S]c1nc2ccccc2[nH]1` [Compound 1] the “Therapeutic Index (CHO)” value [2] was 9.4, the “Therapeutic Index (HepG2)/E. coli” value [1] was 4 and the “Therapeutic Index (HepG2)/S. aureus” value [1] was 10.
In the case of `C[P](C)(C)=[Au][S]c1nc2cccnc2[nH]1` [Compound 7], the “Therapeutic Index (HepG2)/E. coli” value [1] is reported as 5 and the “Therapeutic Index (HepG2)/S. aureus” value [1] is reported as 18.
For `C[P](C)(C)=[Au][S]c1nc2ncccc2o1` [Compound 3], the “Therapeutic Index (CHO)” value [2] was 9.4, the “Therapeutic Index (HepG2)/E. coli” value [1] was 8 and the “Therapeutic Index (HepG2)/S. aureus” value [1] was 10.
`CC(=O)N[C@@H](C[S][Au]=[P](C)(C)C)C(N)=O` [Compound 4] was tested, and the “Therapeutic Index (HepG2)/E. coli” value [1] was 5 and the “Therapeutic Index (HepG2)/S. aureus” value [1] was 24.
In the case of `C[P](C)(C)=[Au][S]c1ccccc1` [Compound 10], the “Therapeutic Index (HepG2)/E. coli” value [1] is reported as 2 and the “Therapeutic Index (HepG2)/S. aureus” value [1] is reported as greater than 2.5.
With `C[P](C)(C)=[Au][S]c1ccccn1` [Compound 11] the “Therapeutic Index (HepG2)/E. coli” value [1] was 5.5 and the “Therapeutic Index (HepG2)/S. aureus” value [1] was greater than 6.
`C[P](C)(C)=[Au][S]c1nc2ncccc2s1` [Compound 14] was tested, and the “Therapeutic Index (HepG2)/E. coli” value [1] was 10 and the “Therapeutic Index (HepG2)/S. aureus” value [1] was greater than 9.
In the case of `C[P](C)(C)=[Au][S]c1cccnc1` [Compound 19], the “Therapeutic Index (HepG2)/E. coli” value [1] is reported as 4 and the “Therapeutic Index (HepG2)/S. aureus” value [1] is reported as greater than 4.
With `CN1CCC([S][Au]=[P](C)(C)C)CC1` [Compound 13] the “Therapeutic Index (HepG2)/E. coli” value [1] was 4 and the “Therapeutic Index (HepG2)/S. aureus” value [1] was greater than 19.
For `C[P](C)(C)=[Au][S]c1ncccn1` [Compound 12], the “Therapeutic Index (HepG2)/E. coli” value [1] was 3 and the “Therapeutic Index (HepG2)/S. aureus” value [1] was greater than 6.
In the case of `COC(=O)[C@H](C[S][Au]=[P](C)(C)C)NC(C)=O` [Compound 2], the “Therapeutic Index (CHO)” value [2] is reported as 26, the “Therapeutic Index (HepG2)/E. coli” value [1] is reported as 2.5 and the “Therapeutic Index (HepG2)/S. aureus” value [1] is reported as 31.
